Binding data for three molecules are collected here from article doi:10.1101/2020.12.09.417477 (bioRxiv, 2020).

Sequences of proteins named here, by UniProt entry; tags and fusion partners are left off.
UniProt P0A717: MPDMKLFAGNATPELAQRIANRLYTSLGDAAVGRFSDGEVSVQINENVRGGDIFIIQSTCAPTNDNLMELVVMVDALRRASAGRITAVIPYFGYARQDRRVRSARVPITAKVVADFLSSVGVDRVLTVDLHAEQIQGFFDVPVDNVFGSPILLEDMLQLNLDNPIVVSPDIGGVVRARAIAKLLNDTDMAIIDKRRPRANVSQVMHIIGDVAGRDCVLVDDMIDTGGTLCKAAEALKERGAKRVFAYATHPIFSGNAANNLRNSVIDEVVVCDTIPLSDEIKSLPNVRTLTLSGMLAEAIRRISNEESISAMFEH

Where two headings read alike, the source gives them in different places. Results are given in words; binding and its absence hold for the method and conditions named. In cells and extracts the contact can be indirect. Here binding means that the protein was enriched with, or labelled near, the bait; the list need not be complete.

What all share (assay): affinity purification with mass spectrometry
Experiment [1] concerns the target C-terminally SPA-tagged CobB (E. coli) (UniProt P75960).
A further experiment has as its target SPA-tagged Prs (E. coli) (UniProt P0A717).
Experiment [2] deals with C-terminally SPA-tagged CobB (E. coli) (UniProt P75960). The source holds these as a separate data set.

Consider “phosphoribosyl pyrophosphate synthase Prs (from UniProt P0A717 1-315) (enzyme)”, for which the binding entry in experiment [1] was “binds”.

B1: CobB (enzyme, E. coli, UniProt P75960 1-279, looked up)
chain: MLSRRGHRLSRFRKNKRRLRERLRQRIFFRDKVVPEAMEKPRVLVLTGAGISAESGIRTFRAADGLWEEHRVEDVATPEGFDRDPELVQAFYNARRRQLQQPEIQPNAAHLALAKLQDALGDRFLLVTQNIDNLHERAGNTNVIHMHGELLKVRCSQSGQVLDWTGDVTPEDKCHCCQFPAPLRPHVVWFGEMPLGMDEIYMALSMADIFIAIGTSGHVYPAAGFVHEAKLHGAHTVELNLEPSQVGNEFAEKYYGPASQVVPEFVEKLLKGLKAGSIA
Turning to B1, the binding result in the experiment with SPA-tagged Prs (E. coli) is given as “binds”.

B2: FabG (enzyme, UniProt P0AEK2 1-244)
chain: MNFEGKIALVTGASRGIGRAIAETLAARGAKVIGTATSENGAQAISDYLGANGKGLMLNVTDPASIESVLEKIRAEFGEVDILVNNAGITRDNLLMRMKDEEWNDIIETNLSSVFRLSKAVMRAMMKKRHGRIITIGSVVGTMGNGGQANYAAAKAGLIGFSKSLAREVASRGITVNVVAPGFIETDMTRALSDDQRAGILAQVPAGRLGGAQEIANAVAFLASDEAAYITGETLHVNGGMYMV
As for B2, in experiment [2], the binding result is given as “binds”.
